Values quoted from earlier work, collected in patent US11555040B2, “Oxepinopyrazole derivatives as inhibitors of P13-kinase activity” (GLAXOSMITHKLINE INTELLECTUAL PROPERTY DEVELOPMENT LIMITED, priority 2017, dated 2023).

Sequences of proteins named here, by UniProt entry; tags and fusion partners are left off.
UniProt P68400, whole entry: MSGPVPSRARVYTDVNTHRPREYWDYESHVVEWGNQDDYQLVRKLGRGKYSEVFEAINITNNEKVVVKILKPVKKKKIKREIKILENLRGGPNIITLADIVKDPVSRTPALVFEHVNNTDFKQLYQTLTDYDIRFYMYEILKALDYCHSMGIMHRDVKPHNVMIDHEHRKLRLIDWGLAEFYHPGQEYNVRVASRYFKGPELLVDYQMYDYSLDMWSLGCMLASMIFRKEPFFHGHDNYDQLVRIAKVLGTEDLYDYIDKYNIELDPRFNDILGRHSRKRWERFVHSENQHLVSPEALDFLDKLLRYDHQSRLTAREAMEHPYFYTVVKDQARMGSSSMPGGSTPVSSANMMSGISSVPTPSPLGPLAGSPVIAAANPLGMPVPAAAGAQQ

Biological target: CK2 protein kinase (Homo sapiens, UniProt P68400)

O=c1cc(N2CCOCC2)oc2c(-c3ccccc3)cccc12 [LY294002]
IC50: 5 to 10 µM
